Data taken from patent US7112562B2 (Diatos, S.A., priority 2001, dated 2006).

System: Caco-2 cell monolayers
Test: TEER measurement, integrity of the Caco-2 barrier model with DPV7 or DPV10
Assay type: cell-based
Details: Caco-2 monolayer, 30 μg/ml DPV with mannitol/proline, inserts 1-3

SSRRARRSPRHLGSG (listed as Homo sapiens) [DPV10]
TEER after incubation (after 8 hours in HBSS): 153 Ω · cm^2 and 201 Ω · cm^2
TEER before incubation (before 8 hours in HBSS): 500 Ω · cm^2 and 458 Ω · cm^2 and 501 Ω · cm^2

“And” between values parts separate entries of the source, which are not always exact repeats. Equal values may be shown once.
